Some of the results follow.

Chains of the proteins cited; added tags and fusions are not shown. Lines headed by an entry give the natural chain unless they say otherwise; changes in a name come on top.
UniProt Q9H2G2: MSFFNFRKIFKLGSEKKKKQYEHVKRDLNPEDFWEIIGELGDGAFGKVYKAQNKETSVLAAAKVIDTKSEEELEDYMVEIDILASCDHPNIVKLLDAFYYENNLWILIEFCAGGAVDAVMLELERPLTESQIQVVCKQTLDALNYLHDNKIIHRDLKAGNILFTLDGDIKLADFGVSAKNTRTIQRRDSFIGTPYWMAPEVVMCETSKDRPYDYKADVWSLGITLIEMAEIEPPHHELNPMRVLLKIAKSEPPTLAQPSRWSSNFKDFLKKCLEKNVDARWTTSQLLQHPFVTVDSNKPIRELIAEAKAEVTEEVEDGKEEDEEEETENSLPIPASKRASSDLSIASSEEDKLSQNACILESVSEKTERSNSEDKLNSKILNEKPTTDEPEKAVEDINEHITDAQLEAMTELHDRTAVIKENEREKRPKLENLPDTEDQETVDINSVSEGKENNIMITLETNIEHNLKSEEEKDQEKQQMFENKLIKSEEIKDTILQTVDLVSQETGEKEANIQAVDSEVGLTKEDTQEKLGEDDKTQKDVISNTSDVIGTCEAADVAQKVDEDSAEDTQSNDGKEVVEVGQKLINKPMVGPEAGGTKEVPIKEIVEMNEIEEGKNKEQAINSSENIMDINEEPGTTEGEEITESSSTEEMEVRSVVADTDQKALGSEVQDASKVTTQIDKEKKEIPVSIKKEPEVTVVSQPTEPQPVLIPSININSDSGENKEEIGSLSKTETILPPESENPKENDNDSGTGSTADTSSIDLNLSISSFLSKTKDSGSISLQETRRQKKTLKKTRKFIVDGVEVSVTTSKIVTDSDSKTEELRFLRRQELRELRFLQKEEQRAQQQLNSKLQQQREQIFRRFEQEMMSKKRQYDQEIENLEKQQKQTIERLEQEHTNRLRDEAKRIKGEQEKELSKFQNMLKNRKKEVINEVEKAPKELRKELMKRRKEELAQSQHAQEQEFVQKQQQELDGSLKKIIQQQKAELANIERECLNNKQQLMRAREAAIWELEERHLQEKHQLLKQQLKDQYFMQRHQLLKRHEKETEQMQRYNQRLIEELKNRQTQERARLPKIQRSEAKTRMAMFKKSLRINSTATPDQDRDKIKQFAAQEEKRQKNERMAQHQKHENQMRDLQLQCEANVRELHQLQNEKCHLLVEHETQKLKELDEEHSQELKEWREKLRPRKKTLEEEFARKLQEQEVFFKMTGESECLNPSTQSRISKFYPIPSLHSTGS
UniProt Q9H936: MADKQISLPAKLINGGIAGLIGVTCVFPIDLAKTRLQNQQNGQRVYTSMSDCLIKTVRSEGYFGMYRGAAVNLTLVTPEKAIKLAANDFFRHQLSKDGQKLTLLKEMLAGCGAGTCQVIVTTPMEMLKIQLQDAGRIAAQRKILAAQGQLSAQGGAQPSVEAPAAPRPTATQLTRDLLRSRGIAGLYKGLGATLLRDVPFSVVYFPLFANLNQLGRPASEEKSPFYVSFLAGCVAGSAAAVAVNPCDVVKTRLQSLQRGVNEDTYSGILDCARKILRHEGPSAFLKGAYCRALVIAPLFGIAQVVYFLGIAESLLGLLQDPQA
UniProt Q9BXS9: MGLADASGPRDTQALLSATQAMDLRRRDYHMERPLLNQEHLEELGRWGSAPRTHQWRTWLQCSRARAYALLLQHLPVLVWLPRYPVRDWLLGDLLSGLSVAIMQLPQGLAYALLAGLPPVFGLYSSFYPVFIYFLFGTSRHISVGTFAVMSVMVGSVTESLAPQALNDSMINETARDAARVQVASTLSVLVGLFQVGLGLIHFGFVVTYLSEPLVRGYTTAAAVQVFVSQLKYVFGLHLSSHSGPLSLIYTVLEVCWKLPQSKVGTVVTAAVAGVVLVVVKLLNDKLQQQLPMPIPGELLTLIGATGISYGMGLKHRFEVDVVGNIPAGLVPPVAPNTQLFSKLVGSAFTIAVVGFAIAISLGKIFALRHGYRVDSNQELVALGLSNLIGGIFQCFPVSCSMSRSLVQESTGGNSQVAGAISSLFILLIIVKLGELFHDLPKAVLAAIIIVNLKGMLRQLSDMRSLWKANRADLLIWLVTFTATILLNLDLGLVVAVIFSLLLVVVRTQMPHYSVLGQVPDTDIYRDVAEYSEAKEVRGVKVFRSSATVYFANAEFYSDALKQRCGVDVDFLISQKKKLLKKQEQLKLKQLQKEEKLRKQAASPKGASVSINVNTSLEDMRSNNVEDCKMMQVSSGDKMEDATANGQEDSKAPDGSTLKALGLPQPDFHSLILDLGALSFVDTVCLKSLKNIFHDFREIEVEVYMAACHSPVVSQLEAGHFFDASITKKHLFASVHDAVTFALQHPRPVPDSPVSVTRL
UniProt Q86VD7: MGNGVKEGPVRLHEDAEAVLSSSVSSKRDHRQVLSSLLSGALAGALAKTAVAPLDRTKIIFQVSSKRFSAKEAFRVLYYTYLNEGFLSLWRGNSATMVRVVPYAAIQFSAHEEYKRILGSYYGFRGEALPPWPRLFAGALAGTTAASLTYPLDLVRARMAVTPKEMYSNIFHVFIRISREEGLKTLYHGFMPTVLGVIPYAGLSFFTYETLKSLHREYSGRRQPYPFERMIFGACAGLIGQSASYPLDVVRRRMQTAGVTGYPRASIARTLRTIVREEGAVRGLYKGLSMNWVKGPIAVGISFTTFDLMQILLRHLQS
UniProt Q99808: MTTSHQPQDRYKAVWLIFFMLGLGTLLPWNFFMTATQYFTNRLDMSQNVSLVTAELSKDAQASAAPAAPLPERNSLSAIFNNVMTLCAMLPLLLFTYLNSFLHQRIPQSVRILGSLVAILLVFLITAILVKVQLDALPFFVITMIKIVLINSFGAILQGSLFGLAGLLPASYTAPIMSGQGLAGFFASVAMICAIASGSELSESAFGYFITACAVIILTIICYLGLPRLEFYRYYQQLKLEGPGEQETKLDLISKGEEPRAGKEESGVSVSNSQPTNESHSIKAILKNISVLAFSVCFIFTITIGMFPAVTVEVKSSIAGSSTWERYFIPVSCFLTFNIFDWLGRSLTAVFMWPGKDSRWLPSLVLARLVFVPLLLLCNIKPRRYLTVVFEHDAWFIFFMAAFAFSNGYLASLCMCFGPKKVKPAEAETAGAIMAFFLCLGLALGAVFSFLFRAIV
UniProt Q8IYB5: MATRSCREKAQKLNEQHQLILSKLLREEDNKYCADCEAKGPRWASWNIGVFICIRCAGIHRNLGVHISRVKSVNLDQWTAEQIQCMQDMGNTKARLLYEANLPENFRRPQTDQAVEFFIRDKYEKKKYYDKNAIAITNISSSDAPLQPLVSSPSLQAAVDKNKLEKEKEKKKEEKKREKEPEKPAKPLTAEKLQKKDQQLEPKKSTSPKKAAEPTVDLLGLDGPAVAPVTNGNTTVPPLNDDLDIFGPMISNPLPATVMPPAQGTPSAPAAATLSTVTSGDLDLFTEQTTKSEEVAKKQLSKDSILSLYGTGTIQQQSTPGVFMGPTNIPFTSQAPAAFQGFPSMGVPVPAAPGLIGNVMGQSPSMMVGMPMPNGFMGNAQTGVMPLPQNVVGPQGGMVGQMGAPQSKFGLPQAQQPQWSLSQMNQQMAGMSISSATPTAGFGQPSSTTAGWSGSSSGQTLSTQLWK
UniProt P52569: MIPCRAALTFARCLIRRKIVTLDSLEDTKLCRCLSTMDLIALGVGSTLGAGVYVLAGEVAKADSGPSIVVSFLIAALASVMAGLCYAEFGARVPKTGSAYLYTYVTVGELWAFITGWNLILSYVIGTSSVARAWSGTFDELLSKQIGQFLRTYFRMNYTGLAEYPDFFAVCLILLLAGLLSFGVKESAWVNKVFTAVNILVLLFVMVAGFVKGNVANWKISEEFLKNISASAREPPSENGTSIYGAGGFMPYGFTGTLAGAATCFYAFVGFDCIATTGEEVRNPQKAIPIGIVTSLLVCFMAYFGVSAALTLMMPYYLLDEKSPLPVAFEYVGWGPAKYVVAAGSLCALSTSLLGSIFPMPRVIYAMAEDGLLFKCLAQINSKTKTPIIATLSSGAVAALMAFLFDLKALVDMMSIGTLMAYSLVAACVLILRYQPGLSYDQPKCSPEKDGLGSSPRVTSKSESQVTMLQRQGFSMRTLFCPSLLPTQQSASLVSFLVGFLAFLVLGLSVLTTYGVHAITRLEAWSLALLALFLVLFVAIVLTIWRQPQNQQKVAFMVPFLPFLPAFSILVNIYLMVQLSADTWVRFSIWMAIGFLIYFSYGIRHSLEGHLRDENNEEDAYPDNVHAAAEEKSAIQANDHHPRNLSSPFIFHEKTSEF
UniProt Q70HW3: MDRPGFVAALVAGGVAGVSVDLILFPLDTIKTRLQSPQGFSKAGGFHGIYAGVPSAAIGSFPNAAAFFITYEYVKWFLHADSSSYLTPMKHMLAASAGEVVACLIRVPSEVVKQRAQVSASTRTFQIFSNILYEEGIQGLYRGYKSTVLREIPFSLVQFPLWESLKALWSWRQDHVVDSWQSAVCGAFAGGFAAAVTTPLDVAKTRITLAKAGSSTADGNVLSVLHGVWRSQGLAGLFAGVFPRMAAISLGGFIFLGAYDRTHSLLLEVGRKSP
UniProt Q8NEW0: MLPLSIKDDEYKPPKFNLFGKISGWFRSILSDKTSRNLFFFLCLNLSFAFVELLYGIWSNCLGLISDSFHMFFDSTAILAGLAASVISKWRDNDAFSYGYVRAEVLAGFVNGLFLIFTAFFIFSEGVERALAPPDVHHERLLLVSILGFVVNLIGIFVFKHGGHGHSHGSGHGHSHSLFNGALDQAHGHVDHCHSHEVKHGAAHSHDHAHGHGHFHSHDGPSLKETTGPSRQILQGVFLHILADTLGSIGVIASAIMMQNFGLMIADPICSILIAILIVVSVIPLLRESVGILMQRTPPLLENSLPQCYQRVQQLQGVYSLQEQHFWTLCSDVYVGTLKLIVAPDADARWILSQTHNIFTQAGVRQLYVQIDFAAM
UniProt Q9BQT8: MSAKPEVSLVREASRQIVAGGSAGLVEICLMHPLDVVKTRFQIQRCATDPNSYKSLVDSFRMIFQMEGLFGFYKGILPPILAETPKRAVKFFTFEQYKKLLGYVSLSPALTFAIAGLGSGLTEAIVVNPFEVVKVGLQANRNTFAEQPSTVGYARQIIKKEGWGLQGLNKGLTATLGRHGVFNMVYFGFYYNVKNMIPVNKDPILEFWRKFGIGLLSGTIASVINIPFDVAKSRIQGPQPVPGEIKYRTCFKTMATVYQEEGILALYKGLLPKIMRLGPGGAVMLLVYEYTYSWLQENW
UniProt Q8IWA5: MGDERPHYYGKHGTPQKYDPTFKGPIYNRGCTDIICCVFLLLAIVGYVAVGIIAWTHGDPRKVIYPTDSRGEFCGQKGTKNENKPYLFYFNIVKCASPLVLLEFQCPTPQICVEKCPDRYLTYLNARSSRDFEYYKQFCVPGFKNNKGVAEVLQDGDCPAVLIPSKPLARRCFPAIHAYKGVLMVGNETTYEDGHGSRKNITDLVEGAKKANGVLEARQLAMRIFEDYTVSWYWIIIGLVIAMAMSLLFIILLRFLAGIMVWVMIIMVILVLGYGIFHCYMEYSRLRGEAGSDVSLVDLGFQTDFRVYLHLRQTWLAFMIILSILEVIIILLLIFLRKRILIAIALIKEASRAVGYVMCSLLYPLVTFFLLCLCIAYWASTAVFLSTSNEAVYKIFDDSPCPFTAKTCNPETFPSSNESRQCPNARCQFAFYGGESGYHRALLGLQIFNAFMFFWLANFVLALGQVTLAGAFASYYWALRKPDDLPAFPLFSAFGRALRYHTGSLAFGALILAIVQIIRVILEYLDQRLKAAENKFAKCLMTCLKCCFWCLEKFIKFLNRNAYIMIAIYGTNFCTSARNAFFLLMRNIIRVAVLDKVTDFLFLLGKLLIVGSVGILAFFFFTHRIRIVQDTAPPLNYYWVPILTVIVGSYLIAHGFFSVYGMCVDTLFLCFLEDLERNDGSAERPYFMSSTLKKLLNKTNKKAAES
UniProt P48029: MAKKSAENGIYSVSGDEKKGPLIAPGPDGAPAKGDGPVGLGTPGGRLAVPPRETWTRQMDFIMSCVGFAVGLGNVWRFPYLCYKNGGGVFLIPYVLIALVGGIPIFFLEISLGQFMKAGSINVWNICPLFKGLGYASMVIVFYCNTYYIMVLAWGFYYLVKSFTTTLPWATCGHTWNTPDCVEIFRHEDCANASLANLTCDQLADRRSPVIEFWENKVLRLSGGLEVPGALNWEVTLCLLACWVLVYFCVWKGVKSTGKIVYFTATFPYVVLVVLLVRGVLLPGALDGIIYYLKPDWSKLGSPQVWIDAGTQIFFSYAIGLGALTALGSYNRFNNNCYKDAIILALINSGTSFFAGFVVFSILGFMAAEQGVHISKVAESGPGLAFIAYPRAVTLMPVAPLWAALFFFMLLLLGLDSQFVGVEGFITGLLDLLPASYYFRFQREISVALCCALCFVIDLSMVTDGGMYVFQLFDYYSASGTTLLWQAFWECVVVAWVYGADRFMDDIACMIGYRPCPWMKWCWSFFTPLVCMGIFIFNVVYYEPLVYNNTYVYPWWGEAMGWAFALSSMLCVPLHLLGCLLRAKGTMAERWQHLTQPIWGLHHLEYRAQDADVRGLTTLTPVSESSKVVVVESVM

Compound in one experiment: CCN(CCCOc1ccc2c(Nc3cc(CC(=O)Nc4cccc(F)c4)[nH]n3)ncnc2c1)CCOP(=O)(O)O [barasertib]
The experiment is described as follows: log2 fold change, soluble protein after heating vs DMSO (PISA); higher = thermal stabilisation; K562 lysate, 10 uM; active = over 0.2 and 3.5 SD of the protein, either way, in both replicates (recomputed). In outline:
(§1)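 K562 pellets were dounce-homogenised in PBS pH 7.4 containing 1 mM MgCl2, and the crude extract, at 1 mg/mL protein, was exposed to 10 μM compound for 30 min. Aliquots were heated for 3 min across 48°C-58°C, pooled, brought to 0.5% NP-40 at 4°C and spun at 21,000xg for 90 min, with the supernatant taken as soluble protein. TMTpro 16plex LC-MS/MS with equalised channel sums quantified that protein. Values are log-two fold changes in thermal stability relative to solvent controls, taken from duplicates.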
For the target SLC39A14 (UniProt Q15043), the log2 fold change is inactive: 0.101.
As to SLK isoform 2 (UniProt Q9H2G2), the log2 fold change is inactive: -0.024.
Same read-out and setting: next, SLC43A1 (UniProt O75387): inactive: -0.047; SLC25A22 (UniProt Q9H936): inactive: -0.02; SLC25A4 (UniProt P12235): inactive: 0.
As for SLC26A6 (UniProt Q9BXS9), the log2 fold change was active: 0.421.
In the case of SLC25A11 (UniProt Q02978), the log2 fold change was inactive: 0.013.
In the case of SLC25A42 (UniProt Q86VD7), the log2 fold change is inactive: 0.02.
Consider SLC27A2 (UniProt O14975), for which the log2 fold change is inactive: 0.029.
SLC29A1 isoform 2 (UniProt Q99808): the log2 fold change is inactive: -0.021.
Same read-out and setting: next, SMAP1 isoform 2 (UniProt Q8IYB5): inactive: -0.019; SLC7A2 isoform 3 (UniProt P52569): inactive: 0.049; SLC25A26 (UniProt Q70HW3): inactive: 0.067.
The same measure, in the same setting: with SLC30A7 (UniProt Q8NEW0) the figure was inactive: 0.095; with SLC25A21 (UniProt Q9BQT8), inactive: -0.001.
SLC44A2 (UniProt Q8IWA5): the log2 fold change is inactive: -0.027.
Regarding SLC6A8 isoform 2 (UniProt P48029), the log2 fold change is inactive: 0.073.

Compound in the next experiment: CC[C@@H]1C(=O)N(C)c2cnc(Nc3ccc(C(=O)NC4CCN(C)CC4)cc3OC)nc2N1C1CCCC1
Described as above. In outline: as §1
With SLC9A6 isoform 2 (UniProt Q92581), the log2 fold change is inactive: 0.102.
SLC25A25 isoform 3 (UniProt Q6KCM7): the log2 fold change is inactive: 0.012.
Consider SLC38A1 (UniProt Q9H2H9), for which the log2 fold change is inactive: 0.035.
For the target SLC25A31 (UniProt Q9H0C2), the log2 fold change is inactive: 0.008.
As to SLC25A14 isoform 3 (UniProt O95258), the log2 fold change was inactive: -0.063.
With SLC38A2 (UniProt Q96QD8), the log2 fold change is inactive: -0.028.
Turning to SLC7A1 (UniProt P30825), the log2 fold change is inactive: 0.009.
Regarding SLC25A20 (UniProt O43772), the log2 fold change was inactive: 0.032.
On to SLC33A1 (UniProt O00400), for which the log2 fold change is inactive: -0.002.
With SMAP2 (UniProt Q8WU79), the log2 fold change was inactive: 0.047.
With SLC30A10 (UniProt Q6XR72), the log2 fold change is inactive: 0.1.
As to SLC35F6 (UniProt Q8N357), the log2 fold change was inactive: -0.036.
As to SLC39A3 (UniProt Q9BRY0), the log2 fold change is inactive: -0.037.
SLC35B2 (UniProt Q8TB61): the log2 fold change was inactive: 0.024.
As for SLC25A51 (UniProt Q9H1U9), the log2 fold change was inactive: 0.052.
For SLC25A6 (UniProt P12236), the log2 fold change is inactive: -0.026.
For SLC25A15 (UniProt Q9Y619), the log2 fold change was inactive: 0.031.
Take SLC25A37 (UniProt Q9NYZ2): the log2 fold change was inactive: 0.016.
SLC9A1 (UniProt P19634): the log2 fold change was inactive: -0.032.
The same measure, in the same setting: with SLC35A4 (UniProt L0R6Q1) the figure was inactive: 0.084; with SLC25A38 (UniProt Q96DW6), inactive: 0.209.
As to SLC25A46 (UniProt Q96AG3), the log2 fold change is inactive: 0.026.
With SLC39A14 (UniProt Q15043), the log2 fold change was inactive: 0.056.
In the case of SLK isoform 2 (UniProt Q9H2G2), the log2 fold change is inactive: 0.072.
On to SLC43A1 (UniProt O75387), for which the log2 fold change was inactive: -0.031.
For the target SLC25A22 (UniProt Q9H936), the log2 fold change is inactive: 0.012.
Consider SLC25A4 (UniProt P12235), for which the log2 fold change is inactive: -0.074.
The same measure, in the same setting: with SLC26A6 (UniProt Q9BXS9) the figure was inactive: 0.055; with SLC25A11 (UniProt Q02978), inactive: 0.016.
In the case of SLC25A42 (UniProt Q86VD7), the log2 fold change was inactive: -0.013.
On to SLC27A2 (UniProt O14975), for which the log2 fold change was inactive: -0.033.
The same measure, in the same setting: next, SLC29A1 isoform 2 (UniProt Q99808): inactive: 0.043; SMAP1 isoform 2 (UniProt Q8IYB5): inactive: 0.171.
Regarding SLC7A2 isoform 3 (UniProt P52569), the log2 fold change was inactive: 0.187.
On to SLC25A26 (UniProt Q70HW3), for which the log2 fold change was inactive: 0.092.
Regarding SLC30A7 (UniProt Q8NEW0), the log2 fold change is inactive: -0.083.
On the same count and under the same terms, with SLC25A21 (UniProt Q9BQT8) the figure was inactive: -0.024.
For SLC44A2 (UniProt Q8IWA5), the log2 fold change is inactive: 0.099.
Take SLC6A8 isoform 2 (UniProt P48029): the log2 fold change was inactive: 0.163.

Compound in another experiment: CC[C@@H]1C(=O)N(C)c2cnc(Nc3ccc(C(=O)N[C@H]4CC[C@H](N5CCN(CC6CC6)CC5)CC4)cc3OC)nc2N1C(C)C [volasertib]
The experiment is described as above. The essentials: as §1
In the case of SLC9A6 isoform 2 (UniProt Q92581), the log2 fold change is inactive: 0.025.
For the target SLC25A25 isoform 3 (UniProt Q6KCM7), the log2 fold change is inactive: 0.03.
For the target SLC38A1 (UniProt Q9H2H9), the log2 fold change was inactive: 0.066.
For the target SLC25A31 (UniProt Q9H0C2), the log2 fold change is inactive: 0.026.
Take SLC25A14 isoform 3 (UniProt O95258): the log2 fold change was inactive: 0.057.
On the same count and under the same terms, with SLC38A2 (UniProt Q96QD8) the figure was inactive: 0.078; with SLC7A1 (UniProt P30825), inactive: 0.038; with SLC25A20 (UniProt O43772), inactive: 0.039.
Same read-out and setting: with SLC33A1 (UniProt O00400) the figure was inactive: 0.017; with SMAP2 (UniProt Q8WU79), inactive: -0.02.
The same measure, in the same setting: next, SLC30A10 (UniProt Q6XR72): inactive: -0.01; SLC35F6 (UniProt Q8N357): inactive: -0.001; SLC39A3 (UniProt Q9BRY0): inactive: 0.053.
For SLC35B2 (UniProt Q8TB61), the log2 fold change was inactive: 0.018.
Same read-out and setting: with SLC25A51 (UniProt Q9H1U9) the figure was inactive: -0.119; with SLC25A6 (UniProt P12236), inactive: 0.041.
Take SLC25A15 (UniProt Q9Y619): the log2 fold change is inactive: 0.031.
For SLC25A37 (UniProt Q9NYZ2), the log2 fold change was inactive: 0.035.
For SLC9A1 (UniProt P19634), the log2 fold change is inactive: 0.071.
For SLC35A4 (UniProt L0R6Q1), the log2 fold change was inactive: 0.061.
In the case of SLC25A38 (UniProt Q96DW6), the log2 fold change was inactive: 0.012.
SLC25A46 (UniProt Q96AG3): the log2 fold change is inactive: -0.014.
Turning to SLC39A14 (UniProt Q15043), the log2 fold change was inactive: 0.014.
As to SLK isoform 2 (UniProt Q9H2G2), the log2 fold change is inactive: 0.039.
As to SLC43A1 (UniProt O75387), the log2 fold change is inactive: 0.006.
Consider SLC25A22 (UniProt Q9H936), for which the log2 fold change was inactive: 0.044.
In the case of SLC25A4 (UniProt P12235), the log2 fold change was inactive: 0.059.
As for SLC26A6 (UniProt Q9BXS9), the log2 fold change was inactive: 0.008.
Regarding SLC25A11 (UniProt Q02978), the log2 fold change is inactive: 0.022.
SLC25A42 (UniProt Q86VD7): the log2 fold change is inactive: -0.024.
Still for that read-out and setting: next, SLC27A2 (UniProt O14975): inactive: -0.084.
Take SLC29A1 isoform 2 (UniProt Q99808): the log2 fold change was inactive: 0.033.
Turning to SMAP1 isoform 2 (UniProt Q8IYB5), the log2 fold change was inactive: 0.07.
SLC7A2 isoform 3 (UniProt P52569): the log2 fold change was inactive: 0.027.
For SLC25A26 (UniProt Q70HW3), the log2 fold change was inactive: 0.004.
SLC30A7 (UniProt Q8NEW0): the log2 fold change is inactive: 0.041.
For SLC25A21 (UniProt Q9BQT8), the log2 fold change was inactive: 0.027.
With SLC44A2 (UniProt Q8IWA5), the log2 fold change was inactive: 0.081.
Consider SLC6A8 isoform 2 (UniProt P48029), for which the log2 fold change is inactive: 0.027.

Values taken from the supplement of paper PMC10849652.
